Assay results published in publication PMC5281633.
No constants are given. Whether binding was seen depends on the method and setting. In cells and extracts the contact can be indirect. Some results given as binding are weak or reduced against the parent protein; the word gives no strength.

Sequences of proteins named here, by UniProt entry; tags and fusion partners are left off.
UniProt Q14457: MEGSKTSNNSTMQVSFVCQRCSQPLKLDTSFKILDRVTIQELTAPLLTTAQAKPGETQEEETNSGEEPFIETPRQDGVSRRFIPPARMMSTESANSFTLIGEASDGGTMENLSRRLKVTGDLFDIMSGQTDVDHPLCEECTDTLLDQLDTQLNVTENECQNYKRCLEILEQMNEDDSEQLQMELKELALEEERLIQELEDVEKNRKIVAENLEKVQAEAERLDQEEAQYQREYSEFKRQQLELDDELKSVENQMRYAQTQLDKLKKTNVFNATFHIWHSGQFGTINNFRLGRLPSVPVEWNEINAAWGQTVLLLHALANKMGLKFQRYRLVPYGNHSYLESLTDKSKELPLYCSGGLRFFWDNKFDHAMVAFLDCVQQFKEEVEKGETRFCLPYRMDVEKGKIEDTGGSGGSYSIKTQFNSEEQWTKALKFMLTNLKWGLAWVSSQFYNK
UniProt P09429: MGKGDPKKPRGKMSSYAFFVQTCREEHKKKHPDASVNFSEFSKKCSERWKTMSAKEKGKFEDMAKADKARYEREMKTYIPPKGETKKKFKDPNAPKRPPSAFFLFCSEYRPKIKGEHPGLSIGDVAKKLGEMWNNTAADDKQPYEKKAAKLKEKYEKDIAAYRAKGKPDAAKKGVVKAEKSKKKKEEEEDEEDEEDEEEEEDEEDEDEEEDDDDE

Key:
[1] = biological target: Beclin1 (human (endogenous in SH-SY5Y)) (UniProt Q14457); experiment: co-IP; lysate of SH-SY5Y cells treated with rotenone and/or transfected with GFP-HMGB1 or siRNA-HMGB1; protein A or G agarose/sepharose beads; the precipitating antibody is not given
[2] = biological target: Beclin1 (human (endogenous in SH-SY5Y)) (UniProt Q14457); experiment: co-IP; endogenous proteins in lysate of control SH-SY5Y cells (no rotenone, no transfection); protein A or G agarose/sepharose beads; the precipitating antibody is not given

binding [1]	Substance	binding [2]
binds	High mobility group box 1 (HMGB1) (from UniProt P09429 1-215)	no binding (condition: control cells without rotenone)
binds	GFP-HMGB1 (from UniProt P09429 1-215)	
